From the supplement of paper PMC11732987, “Enantioselective OTUD7B fragment discovery through chemoproteomics screening and high-throughput optimisation” (Communications Chemistry, 2025)
Some of the results follow. The data scatter; read single values as rough.

The chains behind the UniProt entries cited, without tags or fusion partners. Where a name states a change or a piece, a line headed by the entry shows the natural chain unless it says otherwise. Residues count along the entry.
UniProt Q96AX1: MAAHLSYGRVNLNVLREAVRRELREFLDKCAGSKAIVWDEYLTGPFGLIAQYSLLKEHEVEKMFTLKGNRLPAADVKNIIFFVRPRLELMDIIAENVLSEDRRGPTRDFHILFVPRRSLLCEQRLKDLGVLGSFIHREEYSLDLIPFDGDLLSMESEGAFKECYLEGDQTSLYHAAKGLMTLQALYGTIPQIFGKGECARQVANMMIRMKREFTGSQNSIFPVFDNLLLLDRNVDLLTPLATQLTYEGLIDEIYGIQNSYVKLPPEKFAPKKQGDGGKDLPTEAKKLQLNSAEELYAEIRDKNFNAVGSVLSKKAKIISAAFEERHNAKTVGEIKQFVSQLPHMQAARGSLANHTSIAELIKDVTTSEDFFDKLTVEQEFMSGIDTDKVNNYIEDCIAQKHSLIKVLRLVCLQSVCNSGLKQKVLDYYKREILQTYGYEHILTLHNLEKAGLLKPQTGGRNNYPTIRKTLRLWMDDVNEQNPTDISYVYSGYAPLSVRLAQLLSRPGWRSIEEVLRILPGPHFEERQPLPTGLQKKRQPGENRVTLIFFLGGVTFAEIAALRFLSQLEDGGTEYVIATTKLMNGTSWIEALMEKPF
UniProt Q70CQ2: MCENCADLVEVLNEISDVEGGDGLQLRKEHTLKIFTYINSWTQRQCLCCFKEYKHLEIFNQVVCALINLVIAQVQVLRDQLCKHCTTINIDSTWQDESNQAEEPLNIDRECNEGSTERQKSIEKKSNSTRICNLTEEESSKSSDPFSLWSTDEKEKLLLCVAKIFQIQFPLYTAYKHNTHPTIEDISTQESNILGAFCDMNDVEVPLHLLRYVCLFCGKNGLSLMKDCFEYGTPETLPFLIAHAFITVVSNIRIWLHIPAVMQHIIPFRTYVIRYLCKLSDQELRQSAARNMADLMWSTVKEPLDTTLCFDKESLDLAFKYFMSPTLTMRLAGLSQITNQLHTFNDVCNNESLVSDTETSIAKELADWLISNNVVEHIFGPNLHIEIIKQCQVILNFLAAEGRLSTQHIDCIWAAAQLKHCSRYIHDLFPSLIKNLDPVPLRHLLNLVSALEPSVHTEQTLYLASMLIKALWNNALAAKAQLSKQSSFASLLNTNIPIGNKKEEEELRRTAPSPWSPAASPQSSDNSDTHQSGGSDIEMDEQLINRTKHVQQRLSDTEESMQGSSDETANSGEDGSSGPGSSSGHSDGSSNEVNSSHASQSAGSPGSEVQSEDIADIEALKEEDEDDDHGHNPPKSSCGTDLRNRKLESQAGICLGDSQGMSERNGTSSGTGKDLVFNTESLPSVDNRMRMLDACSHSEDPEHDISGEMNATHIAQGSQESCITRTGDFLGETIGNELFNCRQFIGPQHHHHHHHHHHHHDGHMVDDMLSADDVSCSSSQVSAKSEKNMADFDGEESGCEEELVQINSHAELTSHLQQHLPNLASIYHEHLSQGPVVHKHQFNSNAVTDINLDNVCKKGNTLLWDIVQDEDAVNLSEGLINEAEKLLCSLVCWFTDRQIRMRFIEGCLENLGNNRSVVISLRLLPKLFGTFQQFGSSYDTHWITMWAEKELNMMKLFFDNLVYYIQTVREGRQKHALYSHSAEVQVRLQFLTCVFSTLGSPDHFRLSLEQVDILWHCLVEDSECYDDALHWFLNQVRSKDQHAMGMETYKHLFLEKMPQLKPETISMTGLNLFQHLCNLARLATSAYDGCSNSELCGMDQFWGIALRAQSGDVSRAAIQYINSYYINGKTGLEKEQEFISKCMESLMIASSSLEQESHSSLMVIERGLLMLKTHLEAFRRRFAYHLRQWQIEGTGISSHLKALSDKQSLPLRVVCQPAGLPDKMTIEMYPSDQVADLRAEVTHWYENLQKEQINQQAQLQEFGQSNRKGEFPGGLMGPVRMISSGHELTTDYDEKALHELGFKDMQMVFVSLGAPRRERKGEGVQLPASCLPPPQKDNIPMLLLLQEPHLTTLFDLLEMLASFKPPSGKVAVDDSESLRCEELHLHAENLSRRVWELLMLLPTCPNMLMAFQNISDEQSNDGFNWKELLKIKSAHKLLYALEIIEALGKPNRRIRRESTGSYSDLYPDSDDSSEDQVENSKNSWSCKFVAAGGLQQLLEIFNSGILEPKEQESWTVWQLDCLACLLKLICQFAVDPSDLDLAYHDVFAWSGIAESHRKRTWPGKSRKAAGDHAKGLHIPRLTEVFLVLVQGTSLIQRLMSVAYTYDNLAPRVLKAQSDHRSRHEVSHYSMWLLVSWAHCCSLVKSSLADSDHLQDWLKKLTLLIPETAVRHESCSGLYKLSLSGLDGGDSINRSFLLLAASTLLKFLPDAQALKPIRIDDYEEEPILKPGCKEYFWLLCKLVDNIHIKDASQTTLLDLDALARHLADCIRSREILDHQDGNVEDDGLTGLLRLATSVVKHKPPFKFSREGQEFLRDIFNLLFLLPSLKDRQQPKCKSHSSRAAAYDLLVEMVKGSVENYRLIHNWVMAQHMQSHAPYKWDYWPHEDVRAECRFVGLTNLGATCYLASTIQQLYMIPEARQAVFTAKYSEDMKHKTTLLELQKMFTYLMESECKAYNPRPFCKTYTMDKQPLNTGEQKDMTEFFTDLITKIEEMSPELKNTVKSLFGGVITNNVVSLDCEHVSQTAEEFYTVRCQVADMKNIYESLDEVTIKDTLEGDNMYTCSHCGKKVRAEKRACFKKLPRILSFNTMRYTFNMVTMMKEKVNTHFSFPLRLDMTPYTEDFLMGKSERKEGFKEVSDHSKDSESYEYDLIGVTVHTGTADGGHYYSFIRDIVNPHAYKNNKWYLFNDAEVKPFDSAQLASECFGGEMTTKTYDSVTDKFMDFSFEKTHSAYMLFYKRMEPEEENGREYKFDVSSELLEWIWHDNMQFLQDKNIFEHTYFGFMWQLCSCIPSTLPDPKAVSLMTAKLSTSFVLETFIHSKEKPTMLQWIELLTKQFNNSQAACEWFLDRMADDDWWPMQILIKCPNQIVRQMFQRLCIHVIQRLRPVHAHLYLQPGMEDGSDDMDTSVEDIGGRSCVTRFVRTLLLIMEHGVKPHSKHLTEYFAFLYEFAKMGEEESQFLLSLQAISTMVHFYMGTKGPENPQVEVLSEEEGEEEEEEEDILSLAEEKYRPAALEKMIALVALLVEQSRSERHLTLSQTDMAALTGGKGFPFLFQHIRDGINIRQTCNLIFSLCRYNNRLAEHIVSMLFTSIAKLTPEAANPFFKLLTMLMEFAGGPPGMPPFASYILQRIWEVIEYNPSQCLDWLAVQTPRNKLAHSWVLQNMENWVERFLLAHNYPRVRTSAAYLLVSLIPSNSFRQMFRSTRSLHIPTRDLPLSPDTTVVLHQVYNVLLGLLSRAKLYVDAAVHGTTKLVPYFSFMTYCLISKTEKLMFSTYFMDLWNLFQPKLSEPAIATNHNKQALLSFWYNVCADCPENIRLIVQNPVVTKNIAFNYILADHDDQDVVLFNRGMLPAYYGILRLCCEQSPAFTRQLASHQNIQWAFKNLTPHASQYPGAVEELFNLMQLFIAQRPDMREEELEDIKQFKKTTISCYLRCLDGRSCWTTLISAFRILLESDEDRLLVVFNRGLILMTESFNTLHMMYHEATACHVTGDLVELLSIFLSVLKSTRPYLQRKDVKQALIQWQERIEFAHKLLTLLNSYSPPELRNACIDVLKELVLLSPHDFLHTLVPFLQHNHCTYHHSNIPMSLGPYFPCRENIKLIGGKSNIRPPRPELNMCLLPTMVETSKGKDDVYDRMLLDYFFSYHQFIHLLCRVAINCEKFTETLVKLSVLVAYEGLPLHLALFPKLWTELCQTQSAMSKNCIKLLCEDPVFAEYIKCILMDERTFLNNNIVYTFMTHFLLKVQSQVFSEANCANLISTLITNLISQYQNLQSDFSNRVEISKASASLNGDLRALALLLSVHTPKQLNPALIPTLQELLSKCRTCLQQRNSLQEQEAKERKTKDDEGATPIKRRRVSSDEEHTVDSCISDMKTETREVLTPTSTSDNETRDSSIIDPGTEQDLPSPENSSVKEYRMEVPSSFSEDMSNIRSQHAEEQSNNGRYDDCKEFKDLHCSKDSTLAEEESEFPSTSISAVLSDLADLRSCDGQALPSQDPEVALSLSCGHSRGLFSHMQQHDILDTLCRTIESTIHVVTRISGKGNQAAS
UniProt P31930, 143-163: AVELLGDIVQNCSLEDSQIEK
UniProt Q08AM6, 360-390: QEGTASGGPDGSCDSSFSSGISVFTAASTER
UniProt Q9BZM5, whole entry, looked up: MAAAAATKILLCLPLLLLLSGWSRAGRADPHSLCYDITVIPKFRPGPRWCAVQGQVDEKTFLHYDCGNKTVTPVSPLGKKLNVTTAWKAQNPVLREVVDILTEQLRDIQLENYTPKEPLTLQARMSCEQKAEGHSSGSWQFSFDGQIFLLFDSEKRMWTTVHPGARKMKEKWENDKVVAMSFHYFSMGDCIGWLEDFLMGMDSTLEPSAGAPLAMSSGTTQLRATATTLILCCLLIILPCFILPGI
UniProt Q9H270: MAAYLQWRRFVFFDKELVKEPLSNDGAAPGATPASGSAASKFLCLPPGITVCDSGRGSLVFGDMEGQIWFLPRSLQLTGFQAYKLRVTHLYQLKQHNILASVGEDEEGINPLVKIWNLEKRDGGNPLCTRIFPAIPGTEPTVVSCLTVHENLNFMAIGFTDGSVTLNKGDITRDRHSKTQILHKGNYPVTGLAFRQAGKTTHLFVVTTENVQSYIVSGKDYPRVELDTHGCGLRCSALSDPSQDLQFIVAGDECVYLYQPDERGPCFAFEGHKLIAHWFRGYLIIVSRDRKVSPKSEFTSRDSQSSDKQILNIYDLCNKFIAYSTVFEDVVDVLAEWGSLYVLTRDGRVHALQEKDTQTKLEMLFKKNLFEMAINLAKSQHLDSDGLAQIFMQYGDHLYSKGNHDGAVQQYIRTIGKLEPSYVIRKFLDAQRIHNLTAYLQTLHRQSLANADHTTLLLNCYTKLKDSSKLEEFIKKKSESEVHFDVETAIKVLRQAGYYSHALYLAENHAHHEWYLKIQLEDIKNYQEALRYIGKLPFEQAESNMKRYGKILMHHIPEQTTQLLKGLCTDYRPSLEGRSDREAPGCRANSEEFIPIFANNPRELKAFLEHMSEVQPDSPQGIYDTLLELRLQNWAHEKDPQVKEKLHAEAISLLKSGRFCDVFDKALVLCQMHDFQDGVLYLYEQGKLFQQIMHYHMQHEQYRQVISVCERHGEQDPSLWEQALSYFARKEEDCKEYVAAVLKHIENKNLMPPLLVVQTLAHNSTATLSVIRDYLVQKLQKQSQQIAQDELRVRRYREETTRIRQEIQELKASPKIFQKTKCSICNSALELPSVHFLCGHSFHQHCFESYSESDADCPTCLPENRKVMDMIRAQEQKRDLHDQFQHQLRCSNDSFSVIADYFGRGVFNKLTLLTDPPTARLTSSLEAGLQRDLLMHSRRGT
UniProt P61758, whole entry, looked up: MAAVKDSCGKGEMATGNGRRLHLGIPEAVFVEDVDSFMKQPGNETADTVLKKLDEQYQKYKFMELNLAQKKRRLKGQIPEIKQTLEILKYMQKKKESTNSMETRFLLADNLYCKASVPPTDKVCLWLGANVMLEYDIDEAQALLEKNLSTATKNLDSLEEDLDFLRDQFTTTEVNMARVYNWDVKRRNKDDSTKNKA
UniProt Q9UPT9: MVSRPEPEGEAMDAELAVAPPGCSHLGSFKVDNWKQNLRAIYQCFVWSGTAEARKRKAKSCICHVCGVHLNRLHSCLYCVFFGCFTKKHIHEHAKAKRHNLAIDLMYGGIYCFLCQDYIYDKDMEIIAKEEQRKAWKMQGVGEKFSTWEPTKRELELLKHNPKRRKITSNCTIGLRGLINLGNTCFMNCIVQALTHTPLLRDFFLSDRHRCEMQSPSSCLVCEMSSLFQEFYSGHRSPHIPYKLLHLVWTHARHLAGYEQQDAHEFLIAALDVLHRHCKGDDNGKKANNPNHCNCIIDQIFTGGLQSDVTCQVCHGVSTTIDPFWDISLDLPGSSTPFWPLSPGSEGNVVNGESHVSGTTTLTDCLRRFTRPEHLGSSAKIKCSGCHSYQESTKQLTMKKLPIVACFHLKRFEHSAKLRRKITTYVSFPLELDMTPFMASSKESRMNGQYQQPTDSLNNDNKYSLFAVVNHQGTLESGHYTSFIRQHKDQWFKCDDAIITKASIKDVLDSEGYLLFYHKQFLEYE

What follows are targets tested with ClCC(=O)N[C@@H]1CCCc2ccccc12 (assay: log2 mean competition ratio of IA-DTB cysteine labelling (DMSO/compound) (log2 ratio); higher = stronger cysteine engagement by compound). Conditions: 50 µM; treatment time: 4 h; cell line lysate: HEK293T.
Procedure: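 IA-DTB competitive cysteine chemoproteomics in HEK293T RIPA lysate. Lysates were treated with compound 29 or 30 at 50 or 200 µM for 4 h, then IA-DTB (500 µM, 1 h), trypsin-digested, NeutrAvidin-enriched and analysed by diaPASEF. Competition ratio = intensity DMSO / intensity compound (n=4 treated, n=64 DMSO); binding: mean log2 CR ≥ 1 and p ≤ 0.05 plus QC filters. Target is the cysteine site.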
In the case of VPS33A C163 (UniProt Q96AX1), the “log2 mean competition ratio” value is reported as -0.289.
USP34 C741 (UniProt Q70CQ2) was tested, and the “log2 mean competition ratio” value was 0.0326.
With VDAC2 C47 the “log2 mean competition ratio” value was -0.162.
For VPS33A C121 (UniProt Q96AX1), the “log2 mean competition ratio” value was -0.0902.
For UQCRC1 C410 (UniProt P31930), the “log2 mean competition ratio” value was -0.149.
In the case of VPS26C C137 (UniProt O14972), the “log2 mean competition ratio” value is reported as 0.33.
For UTRN C3023 (UniProt P46939), the “log2 mean competition ratio” value was 0.443.
With VARS2 C713 the “log2 mean competition ratio” value was -0.23.
In the case of UQCRC1 C154 (UniProt P31930), the “log2 mean competition ratio” value is reported as -0.252.
For VAC14 C324 (UniProt Q08AM6), the “log2 mean competition ratio” value was 0.285.
For VAC14 C372 (UniProt Q08AM6), the “log2 mean competition ratio” value was -0.519.
With ULBP2 C50 (UniProt Q9BZM5) the “log2 mean competition ratio” value was 0.55.
For VPS11 C734 (UniProt Q9H270), the “log2 mean competition ratio” value was -0.314.
For VPS13C C1372 (UniProt Q709C8), the “log2 mean competition ratio” value was -0.419.
For USP34 C907 (UniProt Q70CQ2), the “log2 mean competition ratio” value was 0.921.
For VBP1 C113 (UniProt P61758), the “log2 mean competition ratio” value was 0.552.
In the case of VEZT C665, the “log2 mean competition ratio” value is reported as -0.156.
UNC13B C1028 (UniProt O14795) was tested, and the “log2 mean competition ratio” value was 0.00499.
In the case of VPS11 C660 (UniProt Q9H270), the “log2 mean competition ratio” value is reported as 0.114.
With USP22 C44 (UniProt Q9UPT9) the “log2 mean competition ratio” value was 0.508.

Same assay, conditions: 200 µM; treatment time: 4 h; cell line lysate: HEK293T
In the case of VPS33A C163 (UniProt Q96AX1), the “log2 mean competition ratio” value is reported as 0.0231.
In the case of USP34 C741 (UniProt Q70CQ2), the “log2 mean competition ratio” value is reported as 0.554.
VDAC2 C47 was tested, and the “log2 mean competition ratio” value was 0.224.
VPS33A C121 (UniProt Q96AX1) was tested, and the “log2 mean competition ratio” value was 0.169.
In the case of UQCRC1 C410 (UniProt P31930), the “log2 mean competition ratio” value is reported as -0.0458.
VPS26C C137 (UniProt O14972) was tested, and the “log2 mean competition ratio” value was 0.104.
UTRN C3023 (UniProt P46939) was tested, and the “log2 mean competition ratio” value was 0.0612.
With VARS2 C713 the “log2 mean competition ratio” value was -0.0119.
For UQCRC1 C154 (UniProt P31930), the “log2 mean competition ratio” value was -0.417.
With VAC14 C324 (UniProt Q08AM6) the “log2 mean competition ratio” value was 0.0262.
VAC14 C372 (UniProt Q08AM6) was tested, and the “log2 mean competition ratio” value was 0.047.
For ULBP2 C50 (UniProt Q9BZM5), the “log2 mean competition ratio” value was 0.273.
With VPS11 C734 (UniProt Q9H270) the “log2 mean competition ratio” value was 0.105.
With VPS13C C1372 (UniProt Q709C8) the “log2 mean competition ratio” value was -0.224.
For USP34 C907 (UniProt Q70CQ2), the “log2 mean competition ratio” value was -0.000959.
For VBP1 C113 (UniProt P61758), the “log2 mean competition ratio” value was 0.277.
In the case of VEZT C665, the “log2 mean competition ratio” value is reported as -0.0135.
For UNC13B C1028 (UniProt O14795), the “log2 mean competition ratio” value was -0.215.
VPS11 C660 (UniProt Q9H270) was tested, and the “log2 mean competition ratio” value was 0.204.
USP22 C44 (UniProt Q9UPT9) was tested, and the “log2 mean competition ratio” value was -0.265.
